Structures are written as SMILES. Several values for one entry are separate records, joined by “and”; a condition that tells them apart may be missing. Equal values may be shown once. Where a name gives a salt, the structure may show the parent alone. This is one part of the list. Single values are uncertain here, since repeats match poorly.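 HEK293T cells were given each compound shortly before transfection with a reporter in which red mCherry is followed by the SARS-CoV-2 frameshift element and then GFP in the −1 frame, so GFP appears only after frameshifting.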

From the supplement of paper PMC8256030 come the findings set out here.

The test system of assay [1] is SARS-CoV-2 -1 PRF reporter mCherry-FSE-GFP(-1). In words: mCherry (red) intensity as percent of control; higher = higher upstream reporter expression. Conditions: 10 µM; 24 h; HEK293T.
The test system is the same in assay [2]. The assay is described as follows: percent effect, decrease of GFP/mCherry ratio (-1 PRF reporter) relative to controls; higher = stronger frameshift inhibition. Conditions: 10 µM; 24 h; HEK293T.

Take `CCCc1ncc(C[n+]2ccccc2C)c(N)n1`: the mCherry in assay [1] was found to be 84%. Further, the percent effect in assay [2] is -0.447%.
In assay [1], `CCCCN1C[C@H](O)[C@@H](O)[C@H](O)[C@H]1CO` [miglustat] gave a mCherry of 94.3%. Moreover, the percent effect in assay [2] is -5.82%.
For the compound `Nc1ccc(S(=O)(=O)Nc2nccs2)cc1` [sulfathiazole], the mCherry in assay [1] was determined as 98.5%. Moreover, the percent effect in assay [2] was -2.68%.
For `NC(N)=NC(=O)Cc1c(Cl)cccc1Cl` [Guanfacine·HCl], the mCherry in assay [1] was 106%. Moreover, in assay [2], the percent effect is -1.17%.
The compound `Cn1c(C#N)ccc1-c1ccc2c(c1)C(C)(C)OC(=S)N2` [tanaproget] registered a mCherry in assay [1] of 95.7%. In addition, in assay [2], the percent effect is -10.9%.
In assay [1], `CCOC(=O)C1=C(C)NC(CN(C)C)=C(C(=O)OCC)C1c1ccccc1/C=C/C(=O)OC(C)(C)C` (centres undefined) [teludipine] yielded a mCherry of 57.3%. For the same compound, the percent effect in assay [2] was 3.87%.
The corresponding values for `NC[C@H]1CC[C@H](C(=O)O)CC1` [tranexamic acid] are 98.6% and -3%.
The corresponding values for `COC(=O)[C@H]1[C@H]2C[C@@H]3c4[nH]c5cc(OC)ccc5c4CCN3C[C@H]2C[C@H](OC)[C@@H]1OC` [metoserpate] are 89.5% and -4.86%.
In turn, `Cc1scc2c1N(C(=O)CN1CCN(C)CC1)c1ccccc1NC2=O` displayed a mCherry in assay [1] of 119%. Further, the percent effect in assay [2] is 4.14%.
Compound `CC1(C)S[C@@H]2[C@H](NC(=O)C3(N)CCCCC3)C(=O)N2[C@H]1C(=O)O` [ciclacillin] returned a mCherry in assay [1] of 90.5%. Besides, the percent effect in assay [2] was -3.75%.
The corresponding values for `O=C1C(CC[S+]([O-])c2ccccc2)C(=O)N(c2ccccc2)N1c1ccccc1` (centres undefined) [sulfinpyrazone] are 94.8% and -4.95%.
Consider `NC(C(=O)O)C(O)c1ccc(O)c(O)c1` (centres undefined), for which the mCherry in assay [1] came out at 87.5%. The percent effect in assay [2] is -8.01%.
The corresponding values for `CCN1CCCC(OC(=O)C(c2ccccc2)c2ccccc2)C1` (centres undefined) are 106% and -3.73%.
Consider `O=C(O)c1ccccc1-c1ccc(C(F)(F)F)cc1` [xenalipin], for which, in assay [1], the mCherry stood at 81.1%. Moreover, the percent effect in assay [2] was -13.6%.
`CCN1CCN(C(=O)N[C@@H](C(=O)N[C@@H]2C(=O)N3[C@@H]2SC(C)(C)[C@@H]3C(=O)O)c2ccccc2)C(=O)C1=O` [Piperacillin]: in assay [1], the mCherry stood at 60.7%. In assay [2], the percent effect is -8.53%.
The corresponding values for `CC(C(=O)O)c1ccc2c(c1)CC(=O)c1ccccc1S2` (centres undefined) [zaltoprofen] are 107% and -0.598%.
`C[C@]12C=CC(=O)C=C1C(Cl)=C[C@@H]1[C@@H]2[C@@H](O)C[C@@]2(C)[C@H]1CC[C@]2(O)C(=O)CO` [cloprednol] showed a mCherry in assay [1] of 79.6%. Also, the percent effect in assay [2] is -1.79%.
As for `CN1CCCN(C(c2ccccc2)c2ccc(Cl)cc2)CC1` (centres undefined) [homochlorcyclizine], the mCherry in assay [1] came to 51%. Besides, the percent effect in assay [2] was -8.12%.
Taken in the same sequence, the figures for `CCC(=O)OCC(=O)[C@@]1(OC(=O)CC)[C@@H](C)C[C@H]2[C@@H]3CCC4=CC(=O)C=C[C@]4(C)[C@@]3(Cl)[C@@H](O)C[C@@]21C` were 86.1% and -1.68%.
On to `O=c1[nH]c2ccccc2n1C1CCN(CCOc2ccccc2)CC1` [oxiperomide], for which the mCherry in assay [1] came out at 118%. For the same compound, in assay [2], the percent effect was found to be 0.922%.
In assay [1], `CCCCCCCCCC(=O)N[C@H]1[C@H](Oc2c3cc4cc2Oc2ccc(cc2Cl)[C@@H](O[C@@H]2O[C@H](CO)[C@@H](O)[C@H](O)[C@H]2NC(C)=O)[C@@H]2NC(=O)[C@H](NC(=O)[C@@H]4NC(=O)[C@H]4NC(=O)[C@@H](Cc5ccc(c(Cl)c5)O3)NC(=O)[C@H](N)c3ccc(O)c(c3)Oc3cc(O)cc4c3)c3ccc(O)c(c3)-c3c(OC4O[C@H](CO)[C@@H](O)[C@H](O)[C@@H]4O)cc(O)cc3[C@@H](C(=O)O)NC2=O)O[C@H](CO)[C@@H](O)[C@@H]1O` (some centres undefined) [teicoplanin] registered a mCherry of 103%. For the same compound, the percent effect in assay [2] was -1.19%.
Compound `CCCc1nc(C)c2c(=O)nc(-c3cc(S(=O)(=O)N4CCN(CC)CC4)ccc3OCC)[nH]n12` showed a mCherry in assay [1] of 98.6%. The percent effect in assay [2] is -5.15%.
In turn, `CN(Cc1cnc2nc(N)nc(N)c2n1)c1ccc(C(=O)NC(CCC(=O)O)C(=O)O)cc1` (centres undefined) displayed a mCherry in assay [1] of 124%. In assay [2], the percent effect is -2.81%.
With `CC(C)OC(=O)CCC/C=C\C[C@@H]1[C@@H](CC[C@@H](O)CCc2ccccc2)[C@H](O)C[C@@H]1O` [Latanoprost], the mCherry in assay [1] was 86.6% and 89%. The percent effect in assay [2] was -2.71% and -6.04%.
Regarding `CC(C)[C@H](N)C(=O)OCCOCn1cnc2c(=O)nc(N)[nH]c21`, the mCherry in assay [1] is 153%. Besides, in assay [2], the percent effect turned out to be 3.94%.
Taken in the same sequence, the figures for `CC(=O)NCCCCCC(=O)O` [acexamic acid] were 100% and 2.05%.
The corresponding values for `CN1CCN(c2c(F)cc3c(=O)c(C(=O)O)cn4c3c2OCN4C)CC1` [marbofloxacin] are 108% and -3.4%.
For `Cc1c(O)c(=O)ccn1C` [deferiprone], the mCherry in assay [1] was 114%. Besides, the percent effect in assay [2] worked out at 1.68%.
In the case of `O=C(Nc1ncc([N+](=O)[O-])s1)c1cccs1` [tenonitrozole], the mCherry in assay [1] worked out at 61.1%. Further, the percent effect in assay [2] is -13.2%.
Turning to `CCC(C)(C)c1ccc(CC(C)CN2C[C@@H](C)O[C@@H](C)C2)cc1` (some centres undefined) [amorolfine], in assay [1], the mCherry was 99.7% and 88.1%. Further, in assay [2], the percent effect was -1.48% and -8.95%.
As for `CC(C1=C(CCN(C)C)Cc2ccccc21)c1ccccn1` (centres undefined) [dimetindene], the mCherry in assay [1] turned out to be 90.2%. Besides, in assay [2], the percent effect is -1.83%.
Take `CCC(CC)CC1(C(=O)Nc2ccccc2SC(=O)C(C)C)CCCCC1` [dalcetrapib]: the mCherry in assay [1] worked out at 115%. Moreover, the percent effect in assay [2] was -9.17%.
Taken in the same sequence, the figures for `CN1[C@@H]2CC[C@H]1C[C@@H](OC(=O)c1c[nH]c3ccccc13)C2` [Tropisetron] were 71.1% and -8.11%.
With `CCN(CC)CCNc1ccc(C)c2sc3ccccc3c(=O)c12` [lucanthone], the mCherry in assay [1] worked out at 53.6%. In addition, in assay [2], the percent effect is -7.69%.
In turn, `CN(C)CCc1c[nH]c2ccc(Cn3cncn3)cc12` showed a mCherry in assay [1] of 101%. Further, the percent effect in assay [2] was -4.81%.
As for `Cc1cc(CC(=O)O)n(C)c1C(=O)c1ccc(Cl)cc1` [zomepirac], in assay [1], the mCherry was 117%. Also, in assay [2], the percent effect is 0.437%.
Take `Cn1c(=O)cnn(CCCCN2CCN(c3ncccn3)CC2)c1=O` [eptapirone]: in assay [1], the mCherry is 99.9%. For the same compound, the percent effect in assay [2] was -1.48%.
